PubChem BioAssay AID1259254, NCATS, 2017

- Aim: 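Gene knock-downs that lead to re-replication, shown by excess G2 DNA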 (primary screen)
- Cells: human HCT116 colorectal cancer cells
- Reagents: single siRNA against human genes
- Time to read-out: 3 days
- Detection: 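Nuclei stained with Hoechst and imaged; cell-cycle phase assigned by DNA content; G2 share scaled per plate, non-targeting siRNA 0%, GMNN siRNA 100%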
- Reading the numbers: G2 robust z-score: higher = more G2 cells, more excess DNA replication
- Call rule: 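An siRNA counts as active if its G2 robust z-score lies at least 5 MADs above the screen median; here such calls match roughly 38% of GMNN control or more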
The whole screen tested about 59,000 reagents; this is an unselected part. Of all reagents, about 1,550 (2.6%) were called active. 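G2 share is only a proxy for re-replication; each gene was hit by three separate siRNAs, and active genes were retested.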 A number with no mark means an inactive call. The numbers tell different reagents against one gene apart. Not all columns of the deposit are shown. No sequences are given here. Not given: the amount of reagent.

G2 robust z-score, by gene and reagent
PRM2 (GeneID 5620): #1 -0.585; #2 -0.702; #3 -0.417
XBP1 (GeneID 7494): #1 0.916; #2 0.216; #3 -0.18
CDKL5 (GeneID 6792): #1 5.21 (active); #2 -1.21; #3 -0.59
BST2 (GeneID 684): #1 2.71; #2 -1.32; #3 2.22
CXCL17 (GeneID 284340): #1 0.368; #2 1.03; #3 -0.999
SLC27A6 (GeneID 28965): #1 1.28; #2 -0.883; #3 1.57
PJA1 (GeneID 64219): #1 2.61; #2 -0.732; #3 -0.439
ARFGAP3 (GeneID 26286): #1 0.872; #2 0.245; #3 -0.194
HAUS3 (GeneID 79441): #1 -0.555; #2 2.59; #3 -0.619
PITPNC1 (GeneID 26207): #1 2.35; #2 -0.676; #3 -0.571; #4 -1.03; #5 1.09; #6 1.43
TEAD3 (GeneID 7005): #1 0.976; #2 -0.428; #3 -0.721
STN1 (GeneID 79991): #1 2.23; #2 0.235; #3 -0.214
HLA-DPB1 (GeneID 3115): #1 -0.825; #2 -0.479; #3 0.483
PYHIN1 (GeneID 149628): #1 2.85; #2 0.707; #3 -0.826

9 consecutive reagents from above:
G2 robust z-score, by gene and reagent
CDKL5 (GeneID 6792): #1 5.21 (active); #2 -1.21; #3 -0.59
BST2 (GeneID 684): #1 2.71; #2 -1.32; #3 2.22
CXCL17 (GeneID 284340): #1 0.368; #2 1.03; #3 -0.999

The listing continues.
G2 robust z-score, by gene and reagent
C11orf24 (GeneID 53838): #1 0.0886; #2 0.483; #3 -0.308
IFT22 (GeneID 64792): #1 1.21; #2 -0.869; #3 -0.605
KRT3 (GeneID 3850): #1 6.5 (active); #2 0.333; #3 0.589
CHCT1 (GeneID 124773): #1 -0.323; #2 -0.219; #3 1.87
RALGAPB (GeneID 57148): #1 0.763; #2 0.58; #3 0.601
MCTP1 (GeneID 79772): #1 0.417; #2 0.783; #3 0.365
RHOU (GeneID 58480): #1 -0.198; #2 0.0512; #3 2.25
LPCAT2 (GeneID 54947): #1 -1.13; #2 0.272; #3 0.459
